Test results as given in publication PMC5873885.
These are yes or no findings as the source states them, for the method shown. Binding seen in cells or lysates may run through a third protein. These calls come from enrichment with a bait or labelling near it, and not all partners need be listed.

Protein sequences, listed by entry. Tags and fused reporters are not part of them.
UniProt Q969H0: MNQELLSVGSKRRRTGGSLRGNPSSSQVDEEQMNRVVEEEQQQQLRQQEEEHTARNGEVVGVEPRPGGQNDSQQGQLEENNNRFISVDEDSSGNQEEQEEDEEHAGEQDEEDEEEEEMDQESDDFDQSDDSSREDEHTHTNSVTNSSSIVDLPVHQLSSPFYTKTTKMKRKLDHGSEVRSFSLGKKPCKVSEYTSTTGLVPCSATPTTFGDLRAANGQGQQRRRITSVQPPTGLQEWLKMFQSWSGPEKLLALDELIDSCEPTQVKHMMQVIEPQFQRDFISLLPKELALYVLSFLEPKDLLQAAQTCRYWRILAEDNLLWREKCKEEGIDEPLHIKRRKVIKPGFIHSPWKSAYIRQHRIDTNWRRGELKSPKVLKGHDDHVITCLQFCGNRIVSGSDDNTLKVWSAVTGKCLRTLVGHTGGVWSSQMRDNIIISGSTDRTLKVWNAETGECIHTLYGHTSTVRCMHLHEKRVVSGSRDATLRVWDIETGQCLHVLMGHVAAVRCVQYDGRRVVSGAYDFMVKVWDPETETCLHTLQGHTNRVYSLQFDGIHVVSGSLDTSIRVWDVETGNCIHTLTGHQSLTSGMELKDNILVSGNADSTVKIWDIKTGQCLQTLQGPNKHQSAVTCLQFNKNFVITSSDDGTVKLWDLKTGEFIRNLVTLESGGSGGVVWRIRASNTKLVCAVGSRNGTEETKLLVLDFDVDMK
UniProt Q93008: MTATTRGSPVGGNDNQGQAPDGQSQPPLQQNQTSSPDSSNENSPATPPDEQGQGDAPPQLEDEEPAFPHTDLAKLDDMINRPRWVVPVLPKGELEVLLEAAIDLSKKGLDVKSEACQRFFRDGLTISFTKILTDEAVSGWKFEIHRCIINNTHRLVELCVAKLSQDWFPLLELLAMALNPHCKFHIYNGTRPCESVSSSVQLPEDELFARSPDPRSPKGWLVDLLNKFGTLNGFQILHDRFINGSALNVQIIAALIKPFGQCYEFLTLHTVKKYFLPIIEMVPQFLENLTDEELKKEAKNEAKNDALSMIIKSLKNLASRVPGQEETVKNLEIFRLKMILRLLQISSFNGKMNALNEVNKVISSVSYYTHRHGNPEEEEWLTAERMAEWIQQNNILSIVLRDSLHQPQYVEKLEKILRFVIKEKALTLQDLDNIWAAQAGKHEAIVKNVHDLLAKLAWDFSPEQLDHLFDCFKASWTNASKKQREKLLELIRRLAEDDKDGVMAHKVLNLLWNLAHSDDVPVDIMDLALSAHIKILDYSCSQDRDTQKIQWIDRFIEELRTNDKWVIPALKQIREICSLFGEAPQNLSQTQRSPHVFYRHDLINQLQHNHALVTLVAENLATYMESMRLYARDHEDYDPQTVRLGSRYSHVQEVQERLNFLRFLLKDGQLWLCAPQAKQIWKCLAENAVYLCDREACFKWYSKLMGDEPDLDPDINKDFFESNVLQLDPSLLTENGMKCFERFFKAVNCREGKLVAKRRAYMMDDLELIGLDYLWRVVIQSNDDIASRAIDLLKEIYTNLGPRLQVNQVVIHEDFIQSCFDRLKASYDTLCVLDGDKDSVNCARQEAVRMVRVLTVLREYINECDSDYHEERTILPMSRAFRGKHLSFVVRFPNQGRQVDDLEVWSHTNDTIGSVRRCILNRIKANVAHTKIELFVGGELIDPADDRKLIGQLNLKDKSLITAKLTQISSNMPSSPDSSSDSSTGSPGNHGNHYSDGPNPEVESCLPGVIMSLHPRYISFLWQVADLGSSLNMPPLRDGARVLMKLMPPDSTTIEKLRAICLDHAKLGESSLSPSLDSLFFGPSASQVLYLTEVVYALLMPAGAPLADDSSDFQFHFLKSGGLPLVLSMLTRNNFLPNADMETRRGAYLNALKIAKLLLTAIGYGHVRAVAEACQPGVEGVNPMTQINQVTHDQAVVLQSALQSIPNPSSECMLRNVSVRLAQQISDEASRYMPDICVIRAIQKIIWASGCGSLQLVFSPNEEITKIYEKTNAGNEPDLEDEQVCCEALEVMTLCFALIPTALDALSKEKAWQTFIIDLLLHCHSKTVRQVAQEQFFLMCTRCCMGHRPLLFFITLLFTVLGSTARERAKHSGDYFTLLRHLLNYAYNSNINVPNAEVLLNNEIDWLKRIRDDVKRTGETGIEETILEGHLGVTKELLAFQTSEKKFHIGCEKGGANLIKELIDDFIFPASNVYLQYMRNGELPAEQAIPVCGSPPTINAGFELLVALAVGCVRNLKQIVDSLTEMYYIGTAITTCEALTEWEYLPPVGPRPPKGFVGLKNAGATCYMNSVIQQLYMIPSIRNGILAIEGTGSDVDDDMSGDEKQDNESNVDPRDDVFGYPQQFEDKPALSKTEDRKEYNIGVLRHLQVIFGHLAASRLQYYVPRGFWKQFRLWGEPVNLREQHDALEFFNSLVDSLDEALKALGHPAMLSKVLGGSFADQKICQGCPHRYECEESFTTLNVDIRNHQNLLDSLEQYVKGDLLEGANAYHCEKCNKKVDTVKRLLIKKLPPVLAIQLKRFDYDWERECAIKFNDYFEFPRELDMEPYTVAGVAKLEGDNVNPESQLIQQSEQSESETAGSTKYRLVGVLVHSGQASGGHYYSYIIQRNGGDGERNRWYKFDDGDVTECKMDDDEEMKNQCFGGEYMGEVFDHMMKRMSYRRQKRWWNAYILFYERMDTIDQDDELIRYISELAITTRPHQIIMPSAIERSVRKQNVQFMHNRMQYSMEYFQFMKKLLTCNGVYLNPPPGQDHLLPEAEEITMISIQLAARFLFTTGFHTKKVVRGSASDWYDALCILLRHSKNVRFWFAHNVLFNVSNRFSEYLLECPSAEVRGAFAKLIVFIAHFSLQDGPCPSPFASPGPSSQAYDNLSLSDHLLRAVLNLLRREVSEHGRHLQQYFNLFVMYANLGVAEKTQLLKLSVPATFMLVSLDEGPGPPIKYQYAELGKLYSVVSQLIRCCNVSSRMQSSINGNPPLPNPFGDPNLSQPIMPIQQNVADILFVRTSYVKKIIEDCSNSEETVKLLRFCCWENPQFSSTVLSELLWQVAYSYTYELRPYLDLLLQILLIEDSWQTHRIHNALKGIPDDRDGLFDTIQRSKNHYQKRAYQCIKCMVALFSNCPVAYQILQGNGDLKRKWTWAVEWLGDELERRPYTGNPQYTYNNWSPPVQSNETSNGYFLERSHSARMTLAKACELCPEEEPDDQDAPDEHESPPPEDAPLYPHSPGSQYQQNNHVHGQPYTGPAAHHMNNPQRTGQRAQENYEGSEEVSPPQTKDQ
UniProt P05412: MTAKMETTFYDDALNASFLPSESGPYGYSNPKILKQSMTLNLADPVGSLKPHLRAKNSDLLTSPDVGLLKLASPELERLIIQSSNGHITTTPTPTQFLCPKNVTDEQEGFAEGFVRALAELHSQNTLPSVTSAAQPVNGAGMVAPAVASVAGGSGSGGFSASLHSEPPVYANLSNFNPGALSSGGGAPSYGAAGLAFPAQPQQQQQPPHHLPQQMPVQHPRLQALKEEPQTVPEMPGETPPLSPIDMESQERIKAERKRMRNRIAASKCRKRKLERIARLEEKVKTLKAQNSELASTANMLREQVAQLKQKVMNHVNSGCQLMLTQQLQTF

Target: FBW7 (endogenous, HEK293; precipitated or detected with an FBW7α-specific antibody) (human (endogenous in HEK293)) (UniProt Q969H0)
Test: affinity purification with mass spectrometry; endogenous FBW7α immunoprecipitated (5 μg/ml FBW7α antibody; rabbit IgG control) from HEK293 cells treated with MG132 for 6 hours, lysed in 1x Cell Lysis Buffer; complexes washed 5 times; eluates analysed by MS

| binding | Substance |
| --- | --- |
| binds | USP9X (endogenous, HEK293) (from UniProt Q93008 1-2554) (enzyme) |
| binds | c-JUN (endogenous, HEK293) (from UniProt P05412 1-331) |
